PubChem BioAssay AID1224830, NIAID, 2016

Assay: 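Genes whose knock-down alters the TNF-alpha reporter response to LPS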 (primary screen)
Cells: human THP-1 monocytic leukaemia cells, TNF dual-luciferase reporter clone, PMA-differentiated to macrophage-like cells
Reagents: siRNA pool against human genes, 50 nM
Timing: LPS for 4 h, given about 3 days after siRNA transfection
Treatment: bacterial LPS (TLR4 ligand), 10 ng/ml
Measurement: 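Ratio of firefly to renilla light, scaled to the plate median and expressed as a robust z-score per replicate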
Direction: TNF reporter robust z-score: higher = stronger TNF reporter response to LPS
Call rule: 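Each well counts as active if its z-score is over 2.8 or under -1.5; controls are left without a call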
This is an unselected part of about 18,000 reagents. About 2,900 of them (16%) were called active. 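Calls are made per well; low scores hint the gene aids the LPS response, high scores that it dampens it.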 Repeated entries: four replicate wells of each siRNA pool.

Gene | TNF reporter robust z-score | outcome
MAP7D2 | -1.31 | inactive
MAP7D2 | -0.88 | inactive
MAP7D2 | -1.85 | active
MAP7D2 | -1.02 | inactive
FBXO21 | -1.74 | active
FBXO21 | -1.63 | active
FBXO21 | -1.21 | inactive
FBXO21 | -1.97 | active
NUDT1 | -1.4 | inactive
NUDT1 | 0.31 | inactive
NUDT1 | 0.33 | inactive
NUDT1 | 0.99 | inactive
POLR3GL | -1.55 | active
POLR3GL | -0.71 | inactive
POLR3GL | 0.15 | inactive
POLR3GL | -0.08 | inactive
NBPF10 | -1.24 | inactive
NBPF10 | -0.74 | inactive
NBPF10 | -0.79 | inactive
NBPF10 | -0.66 | inactive
GRB7 | 0.53 | inactive
GRB7 | 1.2 | inactive
GRB7 | 0.71 | inactive
GRB7 | 1.05 | inactive
SIAH3 | -0.74 | inactive
SIAH3 | -0.8 | inactive
SIAH3 | -0.65 | inactive
SIAH3 | -0.53 | inactive

Continued (5 carried over from the part before).
Gene | TNF reporter robust z-score | outcome
GRB7 | 1.05 | inactive
SIAH3 | -0.74 | inactive
SIAH3 | -0.8 | inactive
SIAH3 | -0.65 | inactive
SIAH3 | -0.53 | inactive
PKP1 | -1.58 | active
PKP1 | -1.34 | inactive
PKP1 | -1.44 | inactive
PKP1 | -0.96 | inactive
PSAPL1 | 1.98 | inactive
PSAPL1 | 1.79 | inactive
PSAPL1 | 2.6 | inactive
PSAPL1 | 2.18 | inactive
IBSP | 0.06 | inactive
IBSP | 1.04 | inactive
IBSP | -0.49 | inactive
IBSP | 0.94 | inactive
PLD1 | -1.02 | inactive
PLD1 | 1.42 | inactive
PLD1 | -1.05 | inactive
PLD1 | 0.4 | inactive
DNAJB5 | 2.93 | active
DNAJB5 | 0.46 | inactive
DNAJB5 | 0.18 | inactive
DNAJB5 | 1.8 | inactive
